Assay results reported in paper PMC12394722.

Protein sequences, listed by entry. Tags and fused reporters are not part of them. Residues count along the entry.
UniProt O00571, 1-132: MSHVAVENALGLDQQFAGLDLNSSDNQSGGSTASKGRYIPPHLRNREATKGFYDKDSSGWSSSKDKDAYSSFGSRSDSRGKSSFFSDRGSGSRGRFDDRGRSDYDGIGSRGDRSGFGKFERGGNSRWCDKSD
UniProt O00571, 1-132 K35A/R37A/R44A/R46A/K50A: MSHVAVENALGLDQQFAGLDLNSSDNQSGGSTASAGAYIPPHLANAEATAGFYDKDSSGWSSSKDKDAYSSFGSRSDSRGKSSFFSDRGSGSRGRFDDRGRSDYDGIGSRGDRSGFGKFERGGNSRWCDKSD
UniProt O00571, 73-102: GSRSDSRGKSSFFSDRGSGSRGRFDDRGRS
UniProt O00571, 31-61: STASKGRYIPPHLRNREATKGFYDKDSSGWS
UniProt O00571, 1-607: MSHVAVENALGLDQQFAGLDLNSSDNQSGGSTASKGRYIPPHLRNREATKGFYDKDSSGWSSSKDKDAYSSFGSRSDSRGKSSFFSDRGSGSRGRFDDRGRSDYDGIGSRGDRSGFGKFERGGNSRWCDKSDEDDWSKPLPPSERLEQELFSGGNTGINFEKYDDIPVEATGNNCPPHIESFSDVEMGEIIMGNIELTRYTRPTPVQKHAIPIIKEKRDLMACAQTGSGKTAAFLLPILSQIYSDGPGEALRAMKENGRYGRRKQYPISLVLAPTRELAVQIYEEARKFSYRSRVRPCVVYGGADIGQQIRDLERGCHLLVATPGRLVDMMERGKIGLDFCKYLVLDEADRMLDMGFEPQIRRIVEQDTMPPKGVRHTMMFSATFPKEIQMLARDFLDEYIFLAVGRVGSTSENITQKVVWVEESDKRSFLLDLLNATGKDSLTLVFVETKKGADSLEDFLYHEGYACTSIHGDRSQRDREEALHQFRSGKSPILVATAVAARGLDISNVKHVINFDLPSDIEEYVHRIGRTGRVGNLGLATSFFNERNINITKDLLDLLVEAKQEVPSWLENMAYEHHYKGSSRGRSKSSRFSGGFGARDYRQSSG

Columns and labels:
DDX3X N-IDR (human) = DDX3X N-IDR (human) (UniProt O00571); test: NMR; settings: NMR: 200 mM KCl (also 120 mM), 10 C, 50 uM, recombinant protein, residues 1-132, protein details: His6-SUMO tag cleaved (Ulp1)
[1] = target: N-IDR RKtoA-1 K35A,R37A,R44A,R46A,K50A (human) (UniProt O00571); test: NMR; settings: mutated region lost, other RR clusters bind as WT; NMR: 200 mM KCl (also 120 mM), 10 C, 50 uM; recombinant protein; residues 1-132; protein details: His6-SUMO tag cleaved
RR-2 fragment (human) = RR-2 fragment (human) (UniProt O00571); test: ITC; settings: range over RR-1/RR-2 and both GQ RNAs, 50 mM KCl; ITC: 20 mM K-phosphate pH 7.0, 50 mM KCl, 25 C; recombinant protein; residues 73-102; protein details: His6-SUMO tag cleaved
RR-1 fragment (human) = RR-1 fragment (human) (UniProt O00571); test: ITC; settings: range over RR-1/RR-2 and both GQ RNAs, 50 mM KCl; ITC: 20 mM K-phosphate pH 7.0, 50 mM KCl, 25 C; recombinant protein; residues 31-61; protein details: His6-SUMO tag cleaved
N-Core-MBP DDX3X (human) = N-Core-MBP DDX3X (human) (UniProt O00571); test: NMR; settings: NMR: 200 mM KCl (also 120 mM), 10 C, 50 uM; recombinant protein; residues 1-607; protein details: C-terminal MBP

Row | Sequence | binding result (DDX3X N-IDR (human); 400 mM KCl) | binding result (DDX3X N-IDR (human); 1 M KCl, nearly completely abolished) | binding result [1] | binding result (RR-2 fragment (human)) | binding result (RR-1 fragment (human)) | binding result (N-Core-MBP DDX3X (human)) | binding result (DDX3X N-IDR (human); 200 mM KCl)
1 | UAGGGUUAGGGU [telomeric GQ RNA] | binds more weakly | no binding | binds more weakly | binds | binds | – | –
2 | UGUAGAAAGAGCAGAUCUAGAUGC [NRAS mutant RNA] | – | – | – | – | – | binds more weakly | binds more weakly
3 | UUUUUUUUUU [poly-U10] | – | – | – | – | – | – | binds more weakly
4 | UGUGGGAGGGGCGGGUCUGGGUGC [NRAS GQ RNA] | binds more weakly | – | – | binds | binds | – | –

For some assays here: A negative result means that nothing was seen under these conditions. For some assays here: The comparison behind a weaker result is the experiment's own reference, which may not be listed here. For some assays here: Construct, isoform or probe ends are uncertain for at least one entry. For some assays here: At least one verdict rests on a figure or table, not on a statement of the authors.
